This is one part of the list. The main result of the screen is listed elsewhere. These columns were measured beside it and carry no call. Most of these compounds were active or inconclusive in the main read-out, so they are no random draw. The note in brackets gives the kind of curve behind each potency; many fits are weak.

A short description of the assay: qHTS Assay for Lipid Storage Modulators in Drosophila S3 Cells.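 On cell number change: cells counted by Cell Tracker Red CMTPX staining in the red channel.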 The settings on record: BODIPY lipid droplet fluorescence, 18-24 h; for cell number change: measured here: cell count max response, cells fed with added oleic acid. The method, boiled down: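 Laser-scanning cytometry quantifies lipid droplet accumulation (500–530 nm total intensity; droplet/cell object ratio) in oleic acid-fed (400 uM added) Drosophila S3 cells treated with a concentration series. 20 uM Triacsin C defined 100% inhibition.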
A general note: In qHTS, concentration-response curves come from the screen itself.

Where [1] appears, read: measured here: lipid fluorescence (Fed channel) AC50, cells fed with added oleic acid.
[2] abbreviates: measured here: cell number channel AC50, cells fed with added oleic acid.

As to `Brc1ccc(OCc2nnc(SCC3CCCCC3)o2)cc1`, the cell number change was determined as 19.8%. Also, under setting [1], the AC50 is 0.0651 µM [rising, full curve].

Regarding `CC(C)c1ccc(C2(O)C(=O)Nc3cc(Br)ccc32)c(O)c1` (centres undefined), the cell number change was -61%. Further, the half-maximal activity concentration (AC50) under setting [2] is 29.1 µM [falling, single point]. Moreover, the half-maximal activity concentration (AC50) under setting [1] is 29.1 µM [falling, single point]. On to `O=C(NC12CC3CC(CC(C3)C1)C2)C1CCCN1C(=O)NC1CCCCC1` (centres undefined), for which the cell number change was -99.3%. Moreover, the concentration at half-maximal activity (AC50) under setting [2] is 25.9 µM [falling, partial curve, poor fit]. Moreover, the AC50 under setting [1] is 23.1 µM [falling, partial curve, poor fit]. For the molecule `CCC1(C)N=C(c2ccc3c(c2)OCO3)CC(c2ccccc2O)N1` (centres undefined), the cell number change was -60.3%. Turning to `C[C@H]1CCC(=O)N([C@H](CSc2ccccc2)Cc2ccccc2)CC1`, the cell number change was found to be 11.7%. The AC50 under setting [1] is 32.6 µM [falling, single point]. Turning to `NS(=O)(=O)c1ccc(CNC(=O)C2(c3ccc(Cl)cc3)CC2)cc1`, the AC50 under setting [1] is 20.6 µM [rising, single point]. For `CSc1ncc(C(=O)Nc2ccc(Cl)cc2)c(C)n1`, the cell number change amounted to 81%.

With `O=C(CCCn1c(=S)[nH]c2ccsc2c1=O)NCCc1ccccc1`, the cell number change is -45.8%. Further, the concentration at half-maximal activity (AC50) under setting [2] was 29.1 µM [falling, single point]. As for `COc1ccccc1-c1nnc(SCC(=O)NCc2ccco2)n1N`, the cell number change is -29.6%. Under setting [2], the AC50 was 0.731 µM [rising, single point]. Take `N#CC1=C(N)Oc2n[nH]c(-c3ccncc3)c2C1c1ccsc1` (centres undefined): the AC50 under setting [2] is 0.461 µM [rising, single point].

For the molecule `COc1ccc(OCc2nnc(SCC(=O)O)n2N)cc1`, the cell number change was 35.8%. Also, the AC50 under setting [2] was 29.1 µM [rising, single point]. Also, under setting [1], the AC50 was 20.6 µM [rising, single point].

Regarding `CC(C)Sc1nc2ccc(N3C(=O)C4CCCCC4C3=O)cc2s1` (centres undefined), the cell number change was -10.1%. Further, the half-maximal activity concentration (AC50) under setting [1] was 5.8 µM [falling, full curve].

With `COCCn1c(SCC(=O)Nc2ccc(Cl)c(S(=O)(=O)N(C)C)c2)nc2ccccc21`, the cell number change was 10.5%. With `COc1ccc(C(=O)COC(=O)c2cnc(C)cn2)c(OC)c1`, the cell number change is -1.92%. In addition, under setting [1], the AC50 is 20.6 µM [rising, partial curve]. As for `CC(C)(C#CCN1CCCC1)OCCC#N`, the cell number change is -11.3%. For the same molecule, the AC50 under setting [1] was 2.06 µM [falling, full curve, poor fit].

As for `O=C(CCNS(=O)(=O)c1ccccc1)NCCCSc1ccccc1`, the AC50 under setting [1] is 0.259 µM [rising, full curve, poor fit]. Consider `CCc1nnc2c(N(C)C)nc3ccccc3n12`, for which the cell number change is -8.32%. In addition, the AC50 under setting [1] is 6.51 µM [rising, partial curve]. As for `CCC(=O)NCCc1nc2cc(NC(=O)COc3ccccc3)ccc2n1C`, the cell number change turned out to be 30.7%. Besides, the AC50 under setting [2] is 14.6 µM [rising, partial curve, poor fit]. In addition, under setting [1], the half-maximal activity concentration (AC50) was 0.13 µM [rising, full curve, poor fit].

In general, AC50 refers to the midpoint of the concentration-response curve, whichever way the signal moves. A low value points to greater potency.

Values taken from PubChem BioAssay AID2685 (National Center for Advancing Translational Sciences (NCATS), 2010).
